{
  "source": "patent US12064436B2",
  "about": "“Methods of treating brain tumors using combination therapy” (SERVIER PHARMACEUTICALS LLC, priority 2017, dated 2024)",
  "test_system": "subcutaneous human neurosphere-derived glioma cells carrying an IDH1 R132H mutation (TS603 cell line)",
  "assay": "Compound A and temozolomide in subcutaneous IDH1m glioma mouse model, tumor volume by digital calipers",
  "assay_type": "in vivo, mice",
  "conditions": "monotherapy; TMZ 10 mg/kg (Group 2), Compound A 50 mg/kg BID (Group 3)",
  "description": "The study mice were divided into six study groups, which were treated in accordance with the treatment schedules summarized in Table 4.\nNinety (90) 5-6 week old male mice (obtained from Taconic Biosciences) were implanted subcutaneously with 1×10^6 cells bearing the IDH1^R132H mutation in growth hormone/heparin free media with Matrigel (Final, 1:1). […] Excess mice were inoculated to account for tumor variability. Tumor volume and body weights were monitored twice a week until tumors reached˜200 mm^3. Once tumors reached˜200 mm^3 animals were randomized into 6 groups based on digital caliper estimation of tumor burden.\nThe TMZ (2 mg/mL) formulation (Groups 2, 4, 5, and 6) was prepared as follows: • 1) 24 mg of TMZ was weighed into a clear vial. • 2) 12 ml of 0.5% methylcellulose and 0.1% Tween 80 in water was added. • 3) The vial was vortexed for 1-2 min, sonicated if needed, and stored on ice prior to use.\nThe TMZ formulation was administered once per day on Monday-Thursday, followed by 3 days off beginning on Day 1 after randomization of the animals into groups. […] The study continued for 55 days.\nStatistical analysis was conducted by comparing tumor volumes from the final tumor measurement on Day 54 using an unpaired, Student's T-test test between groups.",
  "note": "For at least one compound, name, drawing or mass did not settle the structure.",
  "data": [
    {"smiles": "Cn1nnc2c(C(N)=O)ncn2c1=O", "note": "[TMZ, temozolomide]", "values": [
      {"measurement": "tumor growth inhibition relative to vehicle", "value": "statistically significant tumor growth inhibition"}
    ]}
  ]
}
